The source of these data is PMC7647119.

Chains of the proteins cited; added tags and fusions are not shown. Chains listed by the source or under a name are the forms on record and can include a tag or linker.
OsTIF1-His (Oryza sativa), one chain, as listed by the source: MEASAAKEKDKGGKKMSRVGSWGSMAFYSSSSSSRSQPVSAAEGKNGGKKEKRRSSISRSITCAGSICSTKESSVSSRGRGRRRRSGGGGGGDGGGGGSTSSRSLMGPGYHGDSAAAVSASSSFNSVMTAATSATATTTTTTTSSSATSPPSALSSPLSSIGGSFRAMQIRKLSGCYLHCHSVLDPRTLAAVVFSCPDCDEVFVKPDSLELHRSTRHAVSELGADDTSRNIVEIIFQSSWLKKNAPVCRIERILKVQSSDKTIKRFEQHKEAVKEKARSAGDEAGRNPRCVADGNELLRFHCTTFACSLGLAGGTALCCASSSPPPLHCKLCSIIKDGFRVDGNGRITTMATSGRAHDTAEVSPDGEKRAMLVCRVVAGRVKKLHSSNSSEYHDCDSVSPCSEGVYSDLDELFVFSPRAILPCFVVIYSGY

Data set [1] relates to OsTIF1-His (Oryza sativa). In words: EMSA. The conditions noted are these: LightShift Chemiluminescent EMSA Kit per manufacturer; pH and temperature not stated; recombinant protein; protein details: pET32a vector tags (His); label: biotin 3' end.
Data set [2] addresses T1, MADS29-His (Oryza sativa) (UniProt Q6H711).
T1 sequence: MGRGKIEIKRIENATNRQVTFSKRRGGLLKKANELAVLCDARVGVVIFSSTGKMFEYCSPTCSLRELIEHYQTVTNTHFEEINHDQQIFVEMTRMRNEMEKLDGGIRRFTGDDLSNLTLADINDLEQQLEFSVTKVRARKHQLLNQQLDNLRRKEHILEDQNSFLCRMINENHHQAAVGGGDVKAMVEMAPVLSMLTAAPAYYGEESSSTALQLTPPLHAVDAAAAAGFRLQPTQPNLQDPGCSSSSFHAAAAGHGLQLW
The experiment in a line: EMSA. Conditions: LightShift Chemiluminescent EMSA Kit per manufacturer; pH and temperature not stated; recombinant protein; residues 1-260; protein details: pET32a vector tags (His); label: biotin 3' end; probe letters rebuilt from the primers and the genome.

The exact form of at least one protein or probe is not confirmed.

Regarding “ACTTGGATTTCATCACTAGTATGCGTCGAG (double strand) [POsTAA1 -1748 probe]”, the binding result in data set [1] is “binds”. On to “GTGAAGCCTGTAGTACACTAGTACCTCTGT (double strand) [POsTAA1 -377 probe]”, for which, in data set [1], the binding result is “binds”. On to “TCCTACTAATCATCGATGCTTCATCAAAGC (double strand) [POsTAA1 -2349 probe]”, for which the binding result in data set [1] was “binds”. As for “TGTGTTGTGATAGCTCATAACTAATTATAGCTAGTTAGCATATTATCCTTTTAATAACAA (double strand) [POsAsp1 -1217 CArG probe]”, the binding result in data set [2] was “binds”.
